Values from PubChem BioAssay AID1259308 (NCATS, 2017).
Here is an unselected part of about 59,000 reagents tested. In the full data, about 1,510 (2.6%) were called active. 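Calls use total luciferase alone and ignore viability, so some active siRNAs may act by altering cell number.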 A number with no mark means an inactive call. The numbers tell different reagents against one gene apart. Not all columns of the deposit are shown. No sequences are given here.

- Test: 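Genes whose loss raises luciferase production in HEK293 cells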 (primary screen)
- Cells: human HEK293 embryonic kidney cells stably expressing firefly luciferase (HEK-CMV-Luc2-Hygro)
- Knock-down reagent: single siRNA against human genes, 0.8 pmol siRNA per well
- Timing: 72 h
- Read-out: 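Luciferase light (ONE-Glo) measured on one replicate plate set and viability (CellTiter-Glo) on the other, scaled to a negative control siRNA, with robust z-scores and luciferase per cell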
- Direction: total luciferase, z-score: higher = more reporter protein produced
- Hit rule: 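An siRNA counts as active if its total luciferase robust z-score exceeds 3; genes with two or more such siRNAs out of three were retested with fresh siRNAs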
- Meaning of the calls: active = raised luciferase; inactive = no rise

How did the screen score ZNF367 (GeneID 195828) #1?
total luciferase, z-score: 0.00993

For ZNF367 (GeneID 195828) #2, how do the results read?
total luciferase, z-score: -1.01

With ZNF367 (GeneID 195828) #3, what does the deposit list?
total luciferase, z-score: -0.697

What did the screen give for PLG (GeneID 5340) #1?
total luciferase, z-score: -1.16

What is on record for PLG (GeneID 5340) #2?
total luciferase, z-score: -0.874

What is on record for PLG (GeneID 5340) #3?
total luciferase, z-score: -0.0207

For LBX1 (GeneID 10660) #1, what was measured?
total luciferase, z-score: -2.34

With LBX1 (GeneID 10660) #2, how do the results read?
total luciferase, z-score: -0.0713

What is on record for LBX1 (GeneID 10660) #3?
total luciferase, z-score: 0.997

How did the screen score PPP6C (GeneID 5537) #1?
total luciferase, z-score: 1.3

How did the screen score PPP6C (GeneID 5537) #2?
total luciferase, z-score: 4.65 (active)

What is on record for PPP6C (GeneID 5537) #3?
total luciferase, z-score: 1.99

How did the screen score LMOD2 (GeneID 442721) #1?
total luciferase, z-score: 0.612

How did the screen score LMOD2 (GeneID 442721) #2?
total luciferase, z-score: -0.866

How did the screen score LMOD2 (GeneID 442721) #3?
total luciferase, z-score: -1.25

Which result is listed for PLAGL2 (GeneID 5326) #1?
total luciferase, z-score: 1.51

How did the screen score PLAGL2 (GeneID 5326) #2?
total luciferase, z-score: 0.258

What is on record for PLAGL2 (GeneID 5326) #3?
total luciferase, z-score: 1.74

What did the screen give for DDX60L (GeneID 91351) #1?
total luciferase, z-score: -0.757

With DDX60L (GeneID 91351) #2, what was measured?
total luciferase, z-score: -0.739

What did the screen give for DDX60L (GeneID 91351) #3?
total luciferase, z-score: -0.214

How did the screen score ATP6V0A4 (GeneID 50617) #1?
total luciferase, z-score: -0.792

With ATP6V0A4 (GeneID 50617) #2, what does the deposit list?
total luciferase, z-score: 0.102

With ATP6V0A4 (GeneID 50617) #3, how do the results read?
total luciferase, z-score: 0.474

With ZNF285CP (GeneID 646915) #1, what does the deposit list?
total luciferase, z-score: 0.548

Which result is listed for ZNF285CP (GeneID 646915) #2?
total luciferase, z-score: -0.874

With ZNF285CP (GeneID 646915) #3, what was measured?
total luciferase, z-score: 3.26 (active)

What did the screen give for ZNF285CP (GeneID 646915) #4?
total luciferase, z-score: -2.42

With ZNF285CP (GeneID 646915) #5, what was measured?
total luciferase, z-score: -0.382

How did the screen score ZNF285CP (GeneID 646915) #6?
total luciferase, z-score: 1.47

What did the screen give for MDGA2 (GeneID 161357) #1?
total luciferase, z-score: 1.43

For MDGA2 (GeneID 161357) #2, how do the results read?
total luciferase, z-score: 0.831

With MDGA2 (GeneID 161357) #3, what does the deposit list?
total luciferase, z-score: 0.115

4 entries from above, set out differently.
{"target":"ATP6V0A4 (GeneID 50617)","siRNA no.":2,"total luciferase, z-score":0.102}
{"target":"ATP6V0A4 (GeneID 50617)","siRNA no.":3,"total luciferase, z-score":0.474}
{"target":"ZNF285CP (GeneID 646915)","siRNA no.":1,"total luciferase, z-score":0.548}
{"target":"ZNF285CP (GeneID 646915)","siRNA no.":2,"total luciferase, z-score":-0.874}
